In patent US11406709B2, “Therapeutic and research application of PDCL3” (TRUSTEES OF BOSTON UNIVERSITY, priority 2014, dated 2022):

Test system: PAE cells
Assay: CHX-chase assay of PDCL3 in hypoxic environment
Format: cell-based, porcine
Conditions: hypoxic environment 24 hours

Molecule | PDCL3 expression and stability in response to hypoxia
PDCL3: 239-amino acid human phosducin-like protein 3, SEQ ID NO: 1; expressed from cDNA in cells (protein, listed as Homo sapiens, Myc tag in some forms, expressed from cDNA in cells) MQDPNADTEWNDILRKKGILPPKESLKELEEEAEEEQRILQQSVVKTYEDMTLEELEDHEDEFNEEDERAIEMYRRRRLAEWKATKLKNKFGEVLEISGKDYVQEVTKAGEGLWVILHLYKQGIPLCALINQHLSGLARKFPDVKFIKAISTTCIPNYPDRNLPTIFVYLEGDIKAQFIGPLVFGGMNLTRDELEWKLSESGAIMTDLEENPKKPIEDVLLSSVRRSVLMKRDSDSEGD | upregulated by hypoxia and remains highly stable
acetylation resistant HA-tagged PDCL3: Mutant PDCL3 generated by removing the first methionine and adding HA tag (protein, left off: small tags and cut ends) QDPNADTEWNDILRKKGILPPKESLKELEEEAEEEQRILQQSVVKTYEDMTLEELEDHEDEFNEEDERAIEMYRRRRLAEWKATKLKNKFGEVLEISGKDYVQEVTKAGEGLWVILHLYKQGIPLCALINQHLSGLARKFPDVKFIKAISTTCIPNYPDRNLPTIFVYLEGDIKAQFIGPLVFGGMNLTRDELEWKLSESGAIMTDLEENPKKPIEDVLLSSVRRSVLMKRDSDSEGD | remained stable and hypoxia did significantly increased its expression
